According to article PMC12727695:
Results are given in words; binding and its absence hold for the method and conditions named. In cells and extracts the contact can be indirect. Some binding calls cover weakened binding; strength is not graded here.

Amino acid sequences for entries named in this document (tags omitted). Residues count along the entry.
UniProt Q9D9E0: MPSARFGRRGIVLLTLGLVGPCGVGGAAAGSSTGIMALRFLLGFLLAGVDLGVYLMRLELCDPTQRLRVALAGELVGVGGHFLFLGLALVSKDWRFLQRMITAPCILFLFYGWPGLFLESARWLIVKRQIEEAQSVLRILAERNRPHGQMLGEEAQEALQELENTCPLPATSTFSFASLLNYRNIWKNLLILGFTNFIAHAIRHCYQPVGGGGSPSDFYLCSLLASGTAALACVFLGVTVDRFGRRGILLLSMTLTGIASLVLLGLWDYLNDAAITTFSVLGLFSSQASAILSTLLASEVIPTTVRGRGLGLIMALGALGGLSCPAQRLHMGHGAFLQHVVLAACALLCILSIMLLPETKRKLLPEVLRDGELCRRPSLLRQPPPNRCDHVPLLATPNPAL
UniProt P80188, residues 21-198: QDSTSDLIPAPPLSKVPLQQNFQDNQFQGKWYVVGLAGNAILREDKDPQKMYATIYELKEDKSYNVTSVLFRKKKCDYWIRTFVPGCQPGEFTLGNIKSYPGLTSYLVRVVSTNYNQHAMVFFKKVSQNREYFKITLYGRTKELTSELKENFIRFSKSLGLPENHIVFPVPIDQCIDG

Target: SLC22A17 (mouse (endogenous in primary mouse astrocytes)) (UniProt Q9D9E0)
Test: co-IP; lysates of astrocytes cocultured with TC1-OE cells; incubated overnight with target antibodies at 4 °C, then 30 min with protein A/G beads at room temperature; five washes; immunoblotting; the precipitating antibody is not told

Substance: Lipocalin-2 (LCN2) (from UniProt P80188 21-198) (ligand)
- binding: binds
